{"source": "PubChem BioAssay AID743121 – NCATS | 2013", "assay": "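Genes whose silencing strengthens cell killing by camptothecin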 (primary screen)", "cell system": "MDA-MB-231 cells, a human breast cancer line", "reagent": "single siRNA against human genes, 20 nM siRNA (0.8 pmol per well)", "duration": "120 h (drug added 48 h after transfection, read 72 h later)", "challenge": "camptothecin 20 nM (about EC30) for 72 h; vehicle 0.1% DMSO in parallel plates", "measured": "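Cell viability by ATP luminescence (CellTiter-Glo) as % of non-targeting siRNA wells, and the log2 ratio of viability without drug over viability with camptothecin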", "reading the numbers": "log2 vehicle/camptothecin viability: higher = stronger sensitisation to camptothecin", "rule for the call": "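Each gene scored by redundant siRNA activity (RSA) over its individual siRNA ratios; a gene is called active at p < 0.001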", "note": "The deposit covers about 26,000 reagents; shown is a random part of them. Of all reagents, 167 (0.63%) were called active. 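Calls are per gene from RSA p-values that are not deposited; an individual active-marked siRNA can sensitise only weakly.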 Entries without a mark were called inactive. Reagents against one gene are numbered here. Not all columns of the deposit are shown."}
{"gene knocked down":"LRP12","siRNA no.":1,"log2 vehicle/camptothecin viability":-0.111}
{"gene knocked down":"LRP12","siRNA no.":2,"log2 vehicle/camptothecin viability":-0.146}
{"gene knocked down":"LRP12","siRNA no.":3,"log2 vehicle/camptothecin viability":-0.0975}
{"gene knocked down":"LRP12","siRNA no.":4,"log2 vehicle/camptothecin viability":-0.249}
{"gene knocked down":"DMRT1","siRNA no.":1,"log2 vehicle/camptothecin viability":0.247}
{"gene knocked down":"DMRT1","siRNA no.":2,"log2 vehicle/camptothecin viability":-0.753}
{"gene knocked down":"DMRT1","siRNA no.":3,"log2 vehicle/camptothecin viability":-0.0738}
{"gene knocked down":"ASGR2","siRNA no.":1,"log2 vehicle/camptothecin viability":-0.387}
{"gene knocked down":"ASGR2","siRNA no.":2,"log2 vehicle/camptothecin viability":0.0412}
{"gene knocked down":"ASGR2","siRNA no.":3,"log2 vehicle/camptothecin viability":-0.177}
{"gene knocked down":"ANAPC1","siRNA no.":1,"log2 vehicle/camptothecin viability":-0.142}
{"gene knocked down":"ANAPC1","siRNA no.":2,"log2 vehicle/camptothecin viability":-0.0195}
{"gene knocked down":"ANAPC1","siRNA no.":3,"log2 vehicle/camptothecin viability":-0.00976}
{"gene knocked down":"ANAPC1","siRNA no.":4,"log2 vehicle/camptothecin viability":-0.538}
{"gene knocked down":"ANAPC1","siRNA no.":5,"log2 vehicle/camptothecin viability":-0.186}
{"gene knocked down":"ANAPC1","siRNA no.":6,"log2 vehicle/camptothecin viability":-0.302}
{"gene knocked down":"DRD5","siRNA no.":1,"log2 vehicle/camptothecin viability":0.116}
{"gene knocked down":"DRD5","siRNA no.":2,"log2 vehicle/camptothecin viability":-0.553}
{"gene knocked down":"DRD5","siRNA no.":3,"log2 vehicle/camptothecin viability":-0.136}
{"gene knocked down":"DRD5","siRNA no.":4,"log2 vehicle/camptothecin viability":0.692}
{"gene knocked down":"MAP3K19","siRNA no.":1,"log2 vehicle/camptothecin viability":-0.127}
{"gene knocked down":"MAP3K19","siRNA no.":2,"log2 vehicle/camptothecin viability":0.199}
{"gene knocked down":"MAP3K19","siRNA no.":3,"log2 vehicle/camptothecin viability":-0.411}
{"gene knocked down":"MAP3K19","siRNA no.":4,"log2 vehicle/camptothecin viability":0.00209}
{"gene knocked down":"MAP3K19","siRNA no.":5,"log2 vehicle/camptothecin viability":-0.197}
{"gene knocked down":"MAP3K19","siRNA no.":6,"log2 vehicle/camptothecin viability":-0.0762}
{"gene knocked down":"ADH4","siRNA no.":1,"log2 vehicle/camptothecin viability":-0.0668}
{"gene knocked down":"ADH4","siRNA no.":2,"log2 vehicle/camptothecin viability":0.269}
{"gene knocked down":"ADH4","siRNA no.":3,"log2 vehicle/camptothecin viability":-0.283}
{"gene knocked down":"OMG","siRNA no.":1,"log2 vehicle/camptothecin viability":-0.187}
{"gene knocked down":"OMG","siRNA no.":2,"log2 vehicle/camptothecin viability":-0.173}
{"gene knocked down":"OMG","siRNA no.":3,"log2 vehicle/camptothecin viability":-0.184}
{"gene knocked down":"OMG","siRNA no.":4,"log2 vehicle/camptothecin viability":-0.145}
{"gene knocked down":"GPR143","siRNA no.":1,"log2 vehicle/camptothecin viability":0.404}
{"gene knocked down":"GPR143","siRNA no.":2,"log2 vehicle/camptothecin viability":-0.437}
{"gene knocked down":"GPR143","siRNA no.":3,"log2 vehicle/camptothecin viability":0.4}
{"gene knocked down":"GPR143","siRNA no.":4,"log2 vehicle/camptothecin viability":-0.31}
